PMC9964319, “Half-Sandwich Rhodium Complexes with Releasable N-Donor Monodentate Ligands: Solution Chemical Properties and the Possibility for Acidosis Activation” (Pharmaceutics, 2023)

Key:
[1] = system: Colo205 human colon adenocarcinoma cell line (doxorubicin-sensitive); experiment: MTT assay, cytotoxicity at pH 6 and 7; type: cell-based
[2] = system: Colo320 human colon adenocarcinoma cell line (doxorubicin-resistant); experiment: MTT assay, cytotoxicity at pH 6 and 7; type: cell-based

## Clc1ccc(COC(Cn2ccnc2)c2ccc(Cl)cc2Cl)cc1 (stereo not shown) [econ, econazole, reference compound]
[1]; COLO 205, pH 6, 72 h incubation
  IC50: 23.1 ± 2.1 µM
[1]; COLO 205, pH 7, 72 h incubation
  IC50: 18.2 ± 0.7 µM
[2]; COLO 320, pH 6, 72 h incubation
  IC50: 10.3 ± 1.5 µM
[2]; COLO 320, pH 7, 72 h incubation
  IC50: 11.4 ± 0.4 µM
